Taken from: PubChem BioAssay AID743454 (Peter MacCallum Cancer Centre, 2014)

Assay: 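Knock-downs lowering viability or raising caspase 3/7 activity in vorinostat-treated resistant cells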 (primary screen)
Cells: human HCT116-VR colon cancer cells, selected for vorinostat resistance
Reagent: siRNA pool against human genes, 40 nM siRNA pool
Time to read-out: vorinostat for 24 h, read-out about 72 h after transfection
Treatment: vorinostat at 2.5 µM final
Detection: 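Cell viability by CellTiter-Fluor and caspase 3/7 activity by luminescence, each scaled to mock wells per plate, duplicates averaged, then robust z-scored over all plates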
Reading the numbers: viability robust z-score: higher = more viable cells than screen typical; caspase robust z-score: higher = more caspase 3/7 activity than screen typical
Call rule: 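Hits are knock-downs in viability class RV1/RV2 or caspase class CA1/CA2, excluding ones that killed cells in the no-drug cell-count arm; hits then retested with single siRNAs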
In all, the deposit lists about 18,000 reagents; below is a random part of them. Of all reagents, 450 (2.5%) are marked active. 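Single biological run; no consistent viability z cut-off exists, so the class columns, not z-scores, define the calls.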

Target gene | viability hit class | caspase hit class | viability robust z-score | caspase robust z-score | outcome
F2 (GeneID 2147) | no change | no change | 0.99 | -0.53 | inactive
NSMCE1 (GeneID 197370) | no change | no change | -0.74 | 2.33 | inactive
PHC2 (GeneID 1912) | no change | no change | -0.27 | 0.57 | inactive
CIDEA (GeneID 1149) | no change | no change | 0.42 | -0.48 | inactive
TMEM105 (GeneID 284186) | no change | no change | 0.34 | -0.1 | inactive
DEFA1 (GeneID 1667) | no change | no change | 0.66 | 1 | inactive
GAST (GeneID 2520) | no change | no change | -0.32 | 1.95 | inactive
MBTPS1 (GeneID 8720) | no change | no change | 0.36 | -0.56 | inactive
CARD17P (GeneID 440068) | no change | no change | 1.02 | 1.85 | inactive
MRPL34 (GeneID 64981) | no change | no change | -2.55 | 0.95 | inactive
NOC3L (GeneID 64318) | no change | no change | 0.08 | -0.18 | inactive
KIF1B (GeneID 23095) | no change | no change | -0.25 | -0.95 | inactive
BMAL1 (GeneID 406) | no change | no change | 0.75 | 0.22 | inactive
EDN3 (GeneID 1908) | no change | no change | 0.86 | -0.8 | inactive
ADAM33 (GeneID 80332) | no change | no change | -1.75 | 0.16 | inactive
TPX2 (GeneID 22974) | no change | no change | -4.5 | 1.42 | inactive
BAHD1 (GeneID 22893) | no change | no change | 0.5 | 2.93 | inactive
LARP1 (GeneID 23367) | no change | no change | -1.43 | -0.47 | inactive
RNASE6 (GeneID 6039) | no change | no change | -0.78 | -0.9 | inactive
UCN (GeneID 7349) | no change | no change | -1.19 | 2.02 | inactive
SLC7A4 (GeneID 6545) | no change | no change | -0.68 | 1.84 | inactive
CANT1 (GeneID 124583) | no change | no change | 0.65 | 0.22 | inactive
ATXN7L2 (GeneID 127002) | no change | no change | 0.64 | -0.14 | inactive
C6orf58 (GeneID 352999) | no change | no change | 1.29 | 0.56 | inactive
ITSN1 (GeneID 6453) | no change | no change | -1.66 | -0.29 | inactive
FAM209B (GeneID 388799) | no change | no change | 0.96 | -0.72 | inactive
JAK1 (GeneID 3716) | no change | no change | 1.33 | -0.53 | inactive
PTGR2 (GeneID 145482) | no change | no change | 0.54 | -0.64 | inactive
ALG8 (GeneID 79053) | no change | no change | 0.11 | 0.14 | inactive
TRAPPC14 (GeneID 55262) | no change | no change | 0.63 | 0.04 | inactive
WFDC12 (GeneID 128488) | no change | no change | -0.51 | 0.32 | inactive
ZNF366 (GeneID 167465) | no change | no change | -1.47 | 1.17 | inactive
MEP1A (GeneID 4224) | no change | no change | 0.08 | -0.07 | inactive
B3GALT2 (GeneID 8707) | no change | CA2 (caspase activation) | -0.3 | 5.22 | active
FAM3D (GeneID 131177) | no change | no change | 0.05 | -1.02 | inactive
MAF (GeneID 4094) | no change | no change | 0.28 | -0.07 | inactive
ZNF385D (GeneID 79750) | no change | no change | 0.1 | -1.12 | inactive
TARDBP (GeneID 23435) | no change | no change | -0.48 | -0.87 | inactive
ROBO4 (GeneID 54538) | no change | no change | 1.13 | 2.12 | inactive
ZNF671 (GeneID 79891) | no change | no change | 0.18 | -0.3 | inactive
CNBP (GeneID 7555) | no change | no change | 0.77 | -0.29 | inactive
PXDN (GeneID 7837) | no change | no change | 0.64 | -0.68 | inactive
IER3 (GeneID 8870) | no change | no change | -0.82 | -0.6 | inactive

Called active (from the list above):
Target gene | viability hit class | caspase hit class | viability robust z-score | caspase robust z-score | outcome
B3GALT2 (GeneID 8707) | no change | CA2 (caspase activation) | -0.3 | 5.22 | active

The results go on:
Target gene | viability hit class | caspase hit class | viability robust z-score | caspase robust z-score | outcome
TRPM8 (GeneID 79054) | no change | no change | 0.88 | 1.13 | inactive
CZIB (GeneID 54987) | no change | no change | 0.45 | -1.04 | inactive
DCLRE1A (GeneID 9937) | no change | no change | -0.77 | 0.44 | inactive
HSFX1 (GeneID 100506164) | no change | no change | -1.5 | -0.36 | inactive
TGIF2 (GeneID 60436) | no change | no change | -0.26 | 0.22 | inactive
LMO4 (GeneID 8543) | no change | no change | 0.88 | 0.04 | inactive
RPS25 (GeneID 6230) | no change | no change | -1.07 | -1.01 | inactive
NEK5 (GeneID 341676) | no change | no change | 2.1 | -0.91 | inactive
PCYOX1L (GeneID 78991) | no change | no change | 1.4 | 0.34 | inactive
SYMPK (GeneID 8189) | no change | no change | -0.82 | 1.04 | inactive
HERC2 (GeneID 8924) | no change | no change | 0.59 | -0.16 | inactive
RABGAP1L (GeneID 9910) | no change | no change | -1.88 | 3.7 | inactive
TLL1 (GeneID 7092) | no change | no change | -0.64 | 0.97 | inactive
B9D1 (GeneID 27077) | no change | no change | -0.95 | 2.75 | inactive
PHF20L1 (GeneID 51105) | no change | no change | 0.36 | -0.56 | inactive
LANCL1 (GeneID 10314) | no change | no change | 0.42 | -0.68 | inactive
AMN1 (GeneID 196394) | no change | no change | 0.79 | -0.38 | inactive
LPCAT1 (GeneID 79888) | no change | no change | -0.66 | -0.25 | inactive
PAX7 (GeneID 5081) | no change | no change | -0.96 | 0.76 | inactive
PLEKHG3 (GeneID 26030) | no change | no change | -0.89 | -1.12 | inactive
EPS8L2 (GeneID 64787) | no change | no change | 0.96 | 0.66 | inactive
VPREB3 (GeneID 29802) | no change | no change | 0.74 | -1.25 | inactive
ATP2B3 (GeneID 492) | no change | no change | 0.68 | -0.2 | inactive
GJB7 (GeneID 375519) | no change | no change | -0.14 | -1.17 | inactive
PTBP3 (GeneID 9991) | no change | no change | 0.2 | -0.93 | inactive
ADGRE4P (GeneID 326342) | no change | no change | 1.36 | -0.08 | inactive
TRIM51 (GeneID 84767) | no change | no change | -0.24 | 0.16 | inactive
FABP3 (GeneID 2170) | no change | no change | -0.3 | -0.25 | inactive
ZNF773 (GeneID 374928) | no change | no change | 1.72 | 0.88 | inactive
TAS2R40 (GeneID 259286) | no change | no change | -1.06 | 0.55 | inactive
